Data as given in PubChem BioAssay AID1259405 (NCATS, 2018).

Test: 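Knock-downs that lift recombinant protein yield in hamster ovary cells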 (primary screen)
System: Chinese hamster CHO-K1 ovary cells with stable secreted eGFP expression
Reagent: single siRNA against mouse genes, 0.8 pmol siRNA per well (2 µl of 400 nM stock)
Duration: 3 days
Detection: 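Per-well intracellular GFP measured by laser scanning cytometry, plus viability from ATP luminescence, each relative to plate median of non-targeting control wells, in %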
Scale: GFP, % of control: higher = more GFP per well, higher productivity; viability (ATP), % of control: higher = more viable cells (more ATP)
Active means: 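Called active when intracellular GFP, relative to negative control, is at or above 120%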
This is an unselected part of about 50,000 deposited reagents. About 4,000 of them (8%) were called active. 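Mouse siRNA library applied to hamster cells; one well for each siRNA.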 Unmarked entries are inactive. The numbers tell different reagents against one gene apart.

gene symbol	reagent no.	GFP, % of control	viability (ATP), % of control
Snrnp40 (small nuclear ribonucleoprotein 40 (U5))	1	22.1	30.1
Snrnp40 (small nuclear ribonucleoprotein 40 (U5))	2	62.6	89
Snrnp40 (small nuclear ribonucleoprotein 40 (U5))	3	56.6	62.1
Ctnna1 (catenin alpha 1)	1	69.2	76.7
Ctnna1 (catenin alpha 1)	2	76.8	50.5
Ctse (cathepsin E)	1	76.8	93.5
Ctse (cathepsin E)	2	172 (active)	93.3
Ctse (cathepsin E)	3	76.9	63.6
Nsun7 (NOL1/NOP2/Sun domain family, member 7)	1	83.8	72.6
Nsun7 (NOL1/NOP2/Sun domain family, member 7)	2	49.8	69
Nsun7 (NOL1/NOP2/Sun domain family, member 7)	3	87.8	94
Fut7 (fucosyltransferase 7)	1	89.6	96.1
Fut7 (fucosyltransferase 7)	2	105	132
Fut7 (fucosyltransferase 7)	3	99.2	128
Zfp354a (zinc finger protein 354A)	1	89.3	99.5
Zfp354a (zinc finger protein 354A)	2	71.3	81.2
Zfp354a (zinc finger protein 354A)	3	88.9	82
Commd1 (COMM domain containing 1)	1	80.8	102
Commd1 (COMM domain containing 1)	2	54.5	79.4
Commd1 (COMM domain containing 1)	3	96	108
Or4k6 (olfactory receptor family 4 subfamily K member 6)	1	55.2	90.3
Or4k6 (olfactory receptor family 4 subfamily K member 6)	2	93.7	88.9
Or4k6 (olfactory receptor family 4 subfamily K member 6)	3	99.6	61.2
Or10aa3 (olfactory receptor family 10 subfamily AA member 3)	1	76.3	82.3
Or10aa3 (olfactory receptor family 10 subfamily AA member 3)	2	91.6	98.1
Or10aa3 (olfactory receptor family 10 subfamily AA member 3)	3	57.7	57.6
Nabp2 (nucleic acid binding protein 2)	1	142 (active)	87.5
Nabp2 (nucleic acid binding protein 2)	2	91.8	61.6
Nabp2 (nucleic acid binding protein 2)	3	51.8	46.8
Mthfd2	1	88.1	106
Mthfd2	2	97	81.8
Mthfd2	3	49.2	76.6
Ggta1 (glycoprotein galactosyltransferase alpha 1, 3)	1	71.2	52.3
Ggta1 (glycoprotein galactosyltransferase alpha 1, 3)	2	75.3	82
Ggta1 (glycoprotein galactosyltransferase alpha 1, 3)	3	50.7	63.7
Lcn4 (lipocalin 4)	1	39.7	44.4
Lcn4 (lipocalin 4)	2	70.4	65.7
Lcn4 (lipocalin 4)	3	53	52.7
Slc25a24	1	79.4	91.1
Slc25a24	2	125 (active)	113
Slc25a24	3	73.3	51.9
Supt5 (suppressor of Ty 5, DSIF elongation factor subunit)	1	77.7	69.2
Supt5 (suppressor of Ty 5, DSIF elongation factor subunit)	2	87.7	94.2
Adh7 (alcohol dehydrogenase 7 (class IV), mu or sigma polypeptide)	1	68.1	69.5
Adh7 (alcohol dehydrogenase 7 (class IV), mu or sigma polypeptide)	2	139 (active)	96.3
Adh7 (alcohol dehydrogenase 7 (class IV), mu or sigma polypeptide)	3	87.8	81.8
Ssr3 (signal sequence receptor, gamma)	1	73.3	61.7
Ssr3 (signal sequence receptor, gamma)	2	104	92.3
Ssr3 (signal sequence receptor, gamma)	3	39.6	45.9
Nde1 (nudE neurodevelopment protein 1)	1	97.6	86.9
Nde1 (nudE neurodevelopment protein 1)	2	133 (active)	43.3
Nde1 (nudE neurodevelopment protein 1)	3	93.4	64.3
Ifi204 (interferon activated gene 204)	1	115	81.1
Ifi204 (interferon activated gene 204)	2	78.5	80
Ifi204 (interferon activated gene 204)	3	74.3	101
P2ry6 (pyrimidinergic receptor P2Y, G-protein coupled, 6)	1	72.5	61.5
P2ry6 (pyrimidinergic receptor P2Y, G-protein coupled, 6)	2	65.2	68.4
P2ry6 (pyrimidinergic receptor P2Y, G-protein coupled, 6)	3	112	80.4
Pla2g4c (phospholipase A2, group IVC (cytosolic, calcium-independent))	1	79.9	76.4
Pla2g4c (phospholipase A2, group IVC (cytosolic, calcium-independent))	2	101	95.8
Pla2g4c (phospholipase A2, group IVC (cytosolic, calcium-independent))	3	61.9	100
Zfp940 (zinc finger protein 940)	1	80.6	90.3
Zfp940 (zinc finger protein 940)	2	90	65.8
Zfp940 (zinc finger protein 940)	3	117	85.9
Lyz3 (lysozyme 3)	1	64.3	66.9
Lyz3 (lysozyme 3)	2	65.9	93.6
Lyz3 (lysozyme 3)	3	52.5	52.6
Vmn1r190-ps (vomeronasal 1 receptor 190, pseudogene)	1	101	55.3
Vmn1r190-ps (vomeronasal 1 receptor 190, pseudogene)	2	119	72.6
Vmn1r190-ps (vomeronasal 1 receptor 190, pseudogene)	3	74.5	87.7
Platr25 (pluripotency associated transcript 25)	1	35.4	49.2
Platr25 (pluripotency associated transcript 25)	2	75.1	88.9
Platr25 (pluripotency associated transcript 25)	3	95.5	60.6
Ap2a1 (adaptor-related protein complex 2, alpha 1 subunit)	1	152 (active)	121
Ap2a1 (adaptor-related protein complex 2, alpha 1 subunit)	2	92.6	66.8
Ap2a1 (adaptor-related protein complex 2, alpha 1 subunit)	3	92.6	72.6
Pirb (paired Ig-like receptor B)	1	64	61.2
Pirb (paired Ig-like receptor B)	2	58.6	70.4
Pirb (paired Ig-like receptor B)	3	97	71.4
Enpp1 (ectonucleotide pyrophosphatase/phosphodiesterase 1)	1	77.3	70.2
Enpp1 (ectonucleotide pyrophosphatase/phosphodiesterase 1)	2	162 (active)	90.7
Helt (helt bHLH transcription factor)	1	69.4	69.4
Helt (helt bHLH transcription factor)	2	48.6	25.9
Helt (helt bHLH transcription factor)	3	74.7	81.4
